In patent US6335047B1, “Epoxydecenal isomers” (Givaudan SA, priority 2000, dated 2002) one finds Odor/Taste data, which are given here for two compounds.

Each structure is given as a SMILES string. Like-named read-outs stand apart in the source and are kept apart here.

For the data set the following is noted: in water.
[1] abbreviates: concentration 0.02 parts per billion.
Setting [2] is: concentration 0.2 parts per billion.
Where [3] appears, read: concentration 20.0 parts per billion.

Consider `CCCCC[C@@H]1O[C@H]1/C=C/C=O` (relative stereo) [(+), trans-4,5-epoxy-(E)-2-decenal], for which the Odor/Taste entry is, setting by setting: under setting [1], “no smell, no taste”; under setting [2], “mild metallic smell and taste”; under setting [3], “clear metallic and bean taste/smell”.
With `CCCCCC1OC1/C=C/C=O` (single isomer, unassigned; (-)) [(−), (−)-trans-4. 5-Epoxydec-2-enal], the Odor/Taste result is “faint smell, mild metallic taste” under setting [1]; “strong metallic smell/taste” under setting [2]; “strong metallic and bean taste/smell” under setting [3].
